# Laboratory results as given in the supplement of paper PMC10032668.
# The chains behind the UniProt entries cited, without tags or fusion partners.
# ATP6V0D1, P61421, UniProt P61421, whole entry: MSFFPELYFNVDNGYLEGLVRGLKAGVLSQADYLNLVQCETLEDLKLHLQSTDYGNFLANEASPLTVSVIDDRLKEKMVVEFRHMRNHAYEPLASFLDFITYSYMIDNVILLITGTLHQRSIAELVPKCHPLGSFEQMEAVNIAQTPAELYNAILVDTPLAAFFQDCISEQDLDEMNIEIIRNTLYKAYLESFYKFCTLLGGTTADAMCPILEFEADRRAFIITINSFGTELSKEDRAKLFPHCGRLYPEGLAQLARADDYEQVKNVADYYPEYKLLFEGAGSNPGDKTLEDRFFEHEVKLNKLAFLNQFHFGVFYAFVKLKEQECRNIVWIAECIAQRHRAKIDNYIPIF
# CAPRIN1, Q14444, UniProt Q14444, whole entry: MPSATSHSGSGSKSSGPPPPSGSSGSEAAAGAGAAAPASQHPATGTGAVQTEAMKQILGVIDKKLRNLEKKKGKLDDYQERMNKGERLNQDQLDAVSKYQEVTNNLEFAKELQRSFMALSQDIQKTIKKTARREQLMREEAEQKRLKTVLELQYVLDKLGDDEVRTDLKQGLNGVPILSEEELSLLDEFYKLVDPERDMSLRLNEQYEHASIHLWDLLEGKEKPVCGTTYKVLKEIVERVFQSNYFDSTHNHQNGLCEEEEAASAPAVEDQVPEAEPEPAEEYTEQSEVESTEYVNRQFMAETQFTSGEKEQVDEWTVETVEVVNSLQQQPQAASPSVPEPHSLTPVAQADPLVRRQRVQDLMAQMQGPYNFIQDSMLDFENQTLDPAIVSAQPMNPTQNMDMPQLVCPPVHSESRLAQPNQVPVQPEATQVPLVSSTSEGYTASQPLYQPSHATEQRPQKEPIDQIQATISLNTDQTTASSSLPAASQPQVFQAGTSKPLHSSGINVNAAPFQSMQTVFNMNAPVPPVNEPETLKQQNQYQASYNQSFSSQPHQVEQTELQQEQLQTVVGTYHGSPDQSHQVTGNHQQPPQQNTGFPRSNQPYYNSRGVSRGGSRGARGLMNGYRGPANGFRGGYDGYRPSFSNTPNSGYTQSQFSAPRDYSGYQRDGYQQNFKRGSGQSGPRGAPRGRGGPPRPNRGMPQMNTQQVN
# KHDRBS1, Q07666, UniProt Q07666, whole entry: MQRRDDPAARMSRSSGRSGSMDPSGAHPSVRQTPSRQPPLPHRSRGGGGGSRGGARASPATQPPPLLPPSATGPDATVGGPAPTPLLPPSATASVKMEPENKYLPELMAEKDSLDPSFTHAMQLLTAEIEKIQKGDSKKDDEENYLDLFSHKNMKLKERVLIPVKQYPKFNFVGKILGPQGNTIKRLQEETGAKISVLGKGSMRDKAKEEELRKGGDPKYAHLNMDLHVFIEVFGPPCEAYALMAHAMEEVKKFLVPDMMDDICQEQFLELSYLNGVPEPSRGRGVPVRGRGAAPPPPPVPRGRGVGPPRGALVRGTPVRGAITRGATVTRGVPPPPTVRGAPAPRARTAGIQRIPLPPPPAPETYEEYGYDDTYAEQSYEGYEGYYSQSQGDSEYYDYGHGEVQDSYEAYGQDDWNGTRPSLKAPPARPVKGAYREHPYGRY
# CBFB, Q13951, UniProt Q13951, whole entry: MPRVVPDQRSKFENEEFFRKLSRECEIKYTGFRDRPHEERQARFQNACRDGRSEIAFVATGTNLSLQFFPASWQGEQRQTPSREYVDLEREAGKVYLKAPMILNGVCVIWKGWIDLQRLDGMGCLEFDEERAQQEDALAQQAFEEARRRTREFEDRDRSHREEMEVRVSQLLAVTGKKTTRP
# DCTN1, Q14203, UniProt Q14203, whole entry: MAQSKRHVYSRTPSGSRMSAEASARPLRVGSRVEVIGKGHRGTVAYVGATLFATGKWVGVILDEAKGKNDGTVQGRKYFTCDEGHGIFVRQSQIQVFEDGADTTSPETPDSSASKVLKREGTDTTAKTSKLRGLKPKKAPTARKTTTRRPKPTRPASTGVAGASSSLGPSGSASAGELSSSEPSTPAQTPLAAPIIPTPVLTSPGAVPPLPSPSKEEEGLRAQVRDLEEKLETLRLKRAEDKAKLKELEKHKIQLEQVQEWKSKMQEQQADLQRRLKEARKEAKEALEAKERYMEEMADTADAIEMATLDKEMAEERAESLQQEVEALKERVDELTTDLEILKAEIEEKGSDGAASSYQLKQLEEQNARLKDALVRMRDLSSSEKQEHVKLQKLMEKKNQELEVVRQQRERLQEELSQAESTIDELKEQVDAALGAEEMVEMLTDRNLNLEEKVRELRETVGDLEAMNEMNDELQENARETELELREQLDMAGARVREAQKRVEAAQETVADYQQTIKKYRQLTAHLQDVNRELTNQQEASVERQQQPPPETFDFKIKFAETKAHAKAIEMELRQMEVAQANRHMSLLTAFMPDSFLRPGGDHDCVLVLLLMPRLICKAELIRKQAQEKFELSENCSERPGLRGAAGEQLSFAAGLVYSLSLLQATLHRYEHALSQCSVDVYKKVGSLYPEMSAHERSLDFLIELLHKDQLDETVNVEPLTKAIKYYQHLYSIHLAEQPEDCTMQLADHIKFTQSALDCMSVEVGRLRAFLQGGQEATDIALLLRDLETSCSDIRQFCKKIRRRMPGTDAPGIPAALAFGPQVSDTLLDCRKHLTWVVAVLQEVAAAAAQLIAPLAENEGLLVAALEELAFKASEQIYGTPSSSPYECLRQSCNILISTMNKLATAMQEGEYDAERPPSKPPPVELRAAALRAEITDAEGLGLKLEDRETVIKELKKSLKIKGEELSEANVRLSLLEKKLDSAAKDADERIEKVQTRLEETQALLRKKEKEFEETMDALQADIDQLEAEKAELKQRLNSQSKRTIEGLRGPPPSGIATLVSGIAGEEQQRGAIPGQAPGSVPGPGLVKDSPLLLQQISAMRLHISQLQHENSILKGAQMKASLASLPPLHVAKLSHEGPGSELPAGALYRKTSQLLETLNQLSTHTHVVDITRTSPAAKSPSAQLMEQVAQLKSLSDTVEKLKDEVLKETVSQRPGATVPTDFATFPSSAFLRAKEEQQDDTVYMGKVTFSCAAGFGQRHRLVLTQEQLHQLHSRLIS
# DDX54, Q8TDD1, UniProt Q8TDD1, whole entry: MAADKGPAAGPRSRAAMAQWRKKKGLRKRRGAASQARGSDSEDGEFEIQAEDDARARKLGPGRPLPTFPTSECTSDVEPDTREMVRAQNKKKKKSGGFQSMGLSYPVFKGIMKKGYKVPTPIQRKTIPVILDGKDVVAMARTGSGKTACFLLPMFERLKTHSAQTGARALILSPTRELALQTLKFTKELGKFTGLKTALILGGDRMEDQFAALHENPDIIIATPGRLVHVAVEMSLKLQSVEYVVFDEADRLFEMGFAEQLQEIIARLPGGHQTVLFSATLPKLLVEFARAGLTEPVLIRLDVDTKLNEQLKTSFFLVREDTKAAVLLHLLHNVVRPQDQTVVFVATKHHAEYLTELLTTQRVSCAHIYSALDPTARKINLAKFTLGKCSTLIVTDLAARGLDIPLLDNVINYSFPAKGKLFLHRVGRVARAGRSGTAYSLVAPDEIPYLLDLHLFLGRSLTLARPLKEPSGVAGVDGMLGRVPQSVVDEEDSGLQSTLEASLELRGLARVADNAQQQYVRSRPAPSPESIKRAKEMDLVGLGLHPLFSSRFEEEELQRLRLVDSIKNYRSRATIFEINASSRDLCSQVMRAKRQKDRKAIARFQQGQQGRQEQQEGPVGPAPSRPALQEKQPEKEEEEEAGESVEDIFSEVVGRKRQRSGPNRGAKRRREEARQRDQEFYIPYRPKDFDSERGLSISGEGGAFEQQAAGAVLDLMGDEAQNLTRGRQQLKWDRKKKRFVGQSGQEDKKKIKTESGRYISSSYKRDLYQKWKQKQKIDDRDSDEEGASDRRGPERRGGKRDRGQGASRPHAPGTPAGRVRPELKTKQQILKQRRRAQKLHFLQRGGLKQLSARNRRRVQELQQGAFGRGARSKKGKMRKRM
# LRPAP1, P30533, UniProt P30533, whole entry: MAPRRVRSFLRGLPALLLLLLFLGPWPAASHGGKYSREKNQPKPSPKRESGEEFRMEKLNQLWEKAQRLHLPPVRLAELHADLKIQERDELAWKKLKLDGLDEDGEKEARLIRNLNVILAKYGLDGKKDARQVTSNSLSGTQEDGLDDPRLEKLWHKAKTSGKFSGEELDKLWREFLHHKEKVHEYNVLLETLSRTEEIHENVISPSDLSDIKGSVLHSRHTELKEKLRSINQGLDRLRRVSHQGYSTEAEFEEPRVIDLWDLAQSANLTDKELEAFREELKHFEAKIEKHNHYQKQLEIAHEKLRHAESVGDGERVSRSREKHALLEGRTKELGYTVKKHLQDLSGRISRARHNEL
# NEDD8, Q15843, UniProt Q15843, whole entry: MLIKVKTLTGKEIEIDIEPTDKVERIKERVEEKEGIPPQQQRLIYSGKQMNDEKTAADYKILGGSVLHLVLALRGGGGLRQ
# TMEM97, Q5BJF2, UniProt Q5BJF2, whole entry: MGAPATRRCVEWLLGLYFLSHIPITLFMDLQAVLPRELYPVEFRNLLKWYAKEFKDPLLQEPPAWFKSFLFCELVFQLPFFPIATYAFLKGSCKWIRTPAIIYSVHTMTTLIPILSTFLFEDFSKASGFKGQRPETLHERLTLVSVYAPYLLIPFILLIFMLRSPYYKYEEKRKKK
# EIF3D, O15371, UniProt O15371, whole entry: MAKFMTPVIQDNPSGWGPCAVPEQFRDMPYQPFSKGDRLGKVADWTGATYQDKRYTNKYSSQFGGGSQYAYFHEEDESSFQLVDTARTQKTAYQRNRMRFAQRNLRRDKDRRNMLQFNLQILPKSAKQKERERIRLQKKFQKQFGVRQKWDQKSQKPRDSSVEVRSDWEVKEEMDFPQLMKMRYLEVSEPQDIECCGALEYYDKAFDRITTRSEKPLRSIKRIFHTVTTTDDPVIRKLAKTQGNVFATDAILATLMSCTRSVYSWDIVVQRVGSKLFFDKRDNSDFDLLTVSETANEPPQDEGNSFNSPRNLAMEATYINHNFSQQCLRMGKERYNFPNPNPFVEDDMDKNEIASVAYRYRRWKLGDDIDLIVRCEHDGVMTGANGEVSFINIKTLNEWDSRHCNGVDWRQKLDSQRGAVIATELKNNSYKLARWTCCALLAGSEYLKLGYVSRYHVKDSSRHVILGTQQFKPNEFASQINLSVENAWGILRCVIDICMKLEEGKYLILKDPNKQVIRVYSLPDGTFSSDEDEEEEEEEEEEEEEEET
# NUP153, P49790, UniProt P49790, whole entry: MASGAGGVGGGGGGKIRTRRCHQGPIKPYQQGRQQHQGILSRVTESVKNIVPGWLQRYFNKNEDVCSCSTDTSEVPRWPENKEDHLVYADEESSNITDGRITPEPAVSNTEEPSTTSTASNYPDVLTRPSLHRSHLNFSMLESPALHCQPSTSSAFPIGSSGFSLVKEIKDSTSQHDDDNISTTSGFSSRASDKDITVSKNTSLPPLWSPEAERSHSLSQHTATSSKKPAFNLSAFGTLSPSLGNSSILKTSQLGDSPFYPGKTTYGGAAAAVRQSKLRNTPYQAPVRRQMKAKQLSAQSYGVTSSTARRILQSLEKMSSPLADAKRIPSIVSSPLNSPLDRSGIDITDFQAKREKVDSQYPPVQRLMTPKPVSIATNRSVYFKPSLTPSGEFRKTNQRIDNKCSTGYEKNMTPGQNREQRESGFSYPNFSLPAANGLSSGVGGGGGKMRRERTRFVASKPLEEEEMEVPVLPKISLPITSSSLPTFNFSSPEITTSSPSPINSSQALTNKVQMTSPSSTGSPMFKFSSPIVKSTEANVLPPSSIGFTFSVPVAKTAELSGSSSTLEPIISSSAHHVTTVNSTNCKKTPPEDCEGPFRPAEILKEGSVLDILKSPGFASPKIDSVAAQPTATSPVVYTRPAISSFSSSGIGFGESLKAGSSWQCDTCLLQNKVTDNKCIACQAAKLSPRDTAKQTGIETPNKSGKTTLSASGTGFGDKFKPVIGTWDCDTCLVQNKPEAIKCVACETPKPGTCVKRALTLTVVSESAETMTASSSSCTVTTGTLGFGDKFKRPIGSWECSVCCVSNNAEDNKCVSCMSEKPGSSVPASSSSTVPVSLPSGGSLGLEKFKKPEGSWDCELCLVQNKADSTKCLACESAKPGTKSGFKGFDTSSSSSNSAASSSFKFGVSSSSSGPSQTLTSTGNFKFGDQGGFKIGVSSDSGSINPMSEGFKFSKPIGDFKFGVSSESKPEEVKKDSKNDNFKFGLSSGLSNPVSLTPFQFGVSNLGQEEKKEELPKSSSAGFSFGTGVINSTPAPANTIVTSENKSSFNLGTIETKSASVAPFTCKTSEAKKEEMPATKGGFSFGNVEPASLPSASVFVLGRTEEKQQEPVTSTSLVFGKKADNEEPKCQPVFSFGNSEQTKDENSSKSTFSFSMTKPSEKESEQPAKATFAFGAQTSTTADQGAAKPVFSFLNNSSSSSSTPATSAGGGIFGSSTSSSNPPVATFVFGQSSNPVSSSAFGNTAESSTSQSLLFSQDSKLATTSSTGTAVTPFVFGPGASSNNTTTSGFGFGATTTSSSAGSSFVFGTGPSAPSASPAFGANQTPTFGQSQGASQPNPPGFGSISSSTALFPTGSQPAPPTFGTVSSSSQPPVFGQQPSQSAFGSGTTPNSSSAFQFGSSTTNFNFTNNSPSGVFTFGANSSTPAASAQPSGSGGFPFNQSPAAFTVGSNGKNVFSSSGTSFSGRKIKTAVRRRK
# The other results are listed elsewhere or left out. The list holds hits alone, and they repeat only in part.
# B1: RP11-432J24.5_2 (peptide)
# chain: MHIQVFVDMCFLLSW
# B2: LINC01128 (peptide)
# chain: HRPASTYPSVLENRA
# B3: TUG1 (peptide)
# chain: HPSGPARTQLGGQEG
# Key:
# Test in all cases: PRISMA enrichment of interactor (LFQ) in peptide spot vs all other peptide spots (log2 fold change); higher = stronger / more specific binding of the interactor to the peptide
# [1] = target: ATP6V0D1, P61421
# Procedure: (§1)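 PRISMA: 15-aa overlapping tiles (offset 8 aa) of 60 microproteins, plus SOS1/GLUT1 control peptides, were spot-synthesized on cellulose membranes in triplicate. Membranes were incubated with benzonase-treated HEK293T lysate, and bound proteins were identified by LC-MS/MS with LFQ. Enrichment is the log2 fold change of each protein in one spot versus all other spots. Only interactors passing the significance cutoff are listed.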
# [2] = target: CAPRIN1, Q14444
# Procedure: as §1
# [3] = target: CSRP2, Q16527
# Procedure: as §1
# [4] = target: DDX5, P17844
# Procedure: as §1
# [5] = target: DLST, P36957
# Procedure: as §1
# [6] = target: EIF4H, Q15056
# Procedure: as §1
# [7] = target: G3BP2, Q9UN86
# Procedure: as §1
# [8] = target: HNRNPA1, P09651
# Procedure: as §1
# [9] = target: ITCH, Q96J02
# Procedure: as §1
# [10] = target: KHDRBS1, Q07666
# Procedure: as §1
# [11] = target: LSM12, Q3MHD2
# Procedure: as §1
# [12] = target: NFX1, Q12986
# Procedure: as §1
# [13] = target: PRDX4, Q13162
# Procedure: as §1
# [14] = target: SERF2, P84101
# Procedure: as §1
# [15] = target: TXNDC5, Q8NBS9
# Procedure: as §1
# [16] = target: CBFB, Q13951
# Procedure: as §1
# [17] = target: CKAP4, Q07065
# Procedure: as §1
# [18] = target: COIL, P38432
# Procedure: as §1
# [19] = target: COPS2, P61201
# Procedure: as §1
# [20] = target: DCTN1, Q14203
# Procedure: as §1
# [21] = target: DDX27, Q96GQ7
# Procedure: as §1
# [22] = target: DDX54, Q8TDD1
# Procedure: as §1
# [23] = target: DRG1, Q9Y295
# Procedure: as §1
# [24] = target: EIF2B4, Q9UI10
# Procedure: as §1
# [25] = target: EIF5B, O60841
# Procedure: as §1
# [26] = target: GATA3, P23771
# Procedure: as §1
# [27] = target: GATA6, Q92908
# Procedure: as §1
# [28] = target: GCLM, P48507
# Procedure: as §1
# [29] = target: GMPS, P49915
# Procedure: as §1
# [30] = target: HNRNPUL1, Q9BUJ2
# Procedure: as §1
# [31] = target: KRT18, P05783
# Procedure: as §1
# [32] = target: LRPAP1, P30533
# Procedure: as §1
# [33] = target: LYZ, P61626
# Procedure: as §1
# [34] = target: MAGEB2, O15479
# Procedure: as §1
# [35] = target: MARCKSL1, P49006
# Procedure: as §1
# [36] = target: MAT1A, Q00266
# Procedure: as §1
# [37] = target: MAT2A, P31153
# Procedure: as §1
# [38] = target: MRPL58, Q14197
# Procedure: as §1
# [39] = target: MRPS34, P82930
# Procedure: as §1
# [40] = target: NDUFA13, Q9P0J0
# Procedure: as §1
# [41] = target: NEDD8, Q15843
# Procedure: as §1
# [42] = target: NKAP, Q8N5F7
# Procedure: as §1
# [43] = target: NSUN5, Q96P11
# Procedure: as §1
# [44] = target: OSGEP, Q9NPF4
# Procedure: as §1
# [45] = target: POLR2C, P19387
# Procedure: as §1
# [46] = target: POP1, Q99575
# Procedure: as §1
# [47] = target: RAB5C, P51148
# Procedure: as §1
# [48] = target: RANGAP1, P46060
# Procedure: as §1
# [49] = target: SAFB, Q15424
# Procedure: as §1
# [50] = target: SIRT1, Q96EB6
# Procedure: as §1
# [51] = target: SMARCB1, Q12824
# Procedure: as §1
# [52] = target: SMARCE1, Q969G3
# Procedure: as §1
# [53] = target: SMC1A, Q14683
# Procedure: as §1
# [54] = target: SNRPA1, P09661
# Procedure: as §1
# [55] = target: SNX4, O95219
# Procedure: as §1
# [56] = target: SPTAN1, Q13813
# Procedure: as §1
# [57] = target: SRSF1, Q07955
# Procedure: as §1
# [58] = target: STAT1, P42224
# Procedure: as §1
# [59] = target: TBCD, Q9BTW9
# Procedure: as §1
# [60] = target: TBL2, Q9Y4P3
# Procedure: as §1
# [61] = target: TENT4B, Q8NDF8
# Procedure: as §1
# [62] = target: TMEM97, Q5BJF2
# Procedure: as §1
# [63] = target: TMPO
# Procedure: as §1
# [64] = target: YTHDC2, Q9H6S0
# Procedure: as §1
# [65] = target: YTHDF3, Q7Z739
# Procedure: as §1
# [66] = target: YWHAG, P61981
# Procedure: as §1
# [67] = target: ZFR, Q96KR1
# Procedure: as §1
# [68] = target: DDX1, Q92499
# Procedure: as §1
# [69] = target: DDX50, Q9BQ39
# Procedure: as §1
# [70] = target: DHX37, Q8IY37
# Procedure: as §1
# [71] = target: DNAJC10, Q8IXB1
# Procedure: as §1
# [72] = target: EIF3D, O15371
# Procedure: as §1
# [73] = target: HDDC2, Q7Z4H3
# Procedure: as §1
# [74] = target: HEATR5B, Q9P2D3
# Procedure: as §1
# [75] = target: HERC5, Q9UII4
# Procedure: as §1
# [76] = target: MCRIP2, Q9BUT9
# Procedure: as §1
# [77] = target: MKI67, P46013
# Procedure: as §1
# [78] = target: MOV10, Q9HCE1
# Procedure: as §1
# [79] = target: NDUFB7, P17568
# Procedure: as §1
# [80] = target: NUP153, P49790
# Procedure: as §1
# [81] = target: RO60, P10155
# Procedure: as §1
# [82] = target: SART1, O43290
# Procedure: as §1
# [83] = target: SCAMP3, O14828
# Procedure: as §1
# [84] = target: SENP3, Q9H4L4
# Procedure: as §1
# [85] = target: SLC35B2, Q8TB61
# Procedure: as §1
# [86] = target: SLC39A7, Q92504
# Procedure: as §1
# [87] = target: SURF4, O15260
# Procedure: as §1
# [88] = target: TAB2, Q9NYJ8
# Procedure: as §1
binder,measurement,setting,value
B1,PRISMA enrichment of interactor (log2),[1],5.97
same,PRISMA enrichment of interactor (log2),[2],5.77
same,PRISMA enrichment of interactor (log2),[3],5.94
same,PRISMA enrichment of interactor (log2),[4],7.29
same,PRISMA enrichment of interactor (log2),[5],4.46
same,PRISMA enrichment of interactor (log2),[6],5.28
same,PRISMA enrichment of interactor (log2),[7],6.47
same,PRISMA enrichment of interactor (log2),[8],5.25
same,PRISMA enrichment of interactor (log2),[9],5.5
same,PRISMA enrichment of interactor (log2),[10],5.31
same,PRISMA enrichment of interactor (log2),[11],4.69
same,PRISMA enrichment of interactor (log2),[12],4.75
same,PRISMA enrichment of interactor (log2),[13],5.93
same,PRISMA enrichment of interactor (log2),[14],6.93
same,PRISMA enrichment of interactor (log2),[15],6.23
B2,PRISMA enrichment of interactor (log2),[1],5.78
same,PRISMA enrichment of interactor (log2),[16],5.06
same,PRISMA enrichment of interactor (log2),[17],4.69
same,PRISMA enrichment of interactor (log2),[18],6.11
same,PRISMA enrichment of interactor (log2),[19],4.56
same,PRISMA enrichment of interactor (log2),[20],6.64
same,PRISMA enrichment of interactor (log2),[21],5.15
same,PRISMA enrichment of interactor (log2),[22],5.86
same,PRISMA enrichment of interactor (log2),[23],5.25
same,PRISMA enrichment of interactor (log2),[24],4.9
same,PRISMA enrichment of interactor (log2),[25],6.29
same,PRISMA enrichment of interactor (log2),[26],4.61
same,PRISMA enrichment of interactor (log2),[27],4.97
same,PRISMA enrichment of interactor (log2),[28],5.53
same,PRISMA enrichment of interactor (log2),[29],4.32
same,PRISMA enrichment of interactor (log2),[30],4.33
same,PRISMA enrichment of interactor (log2),[31],5.58
same,PRISMA enrichment of interactor (log2),[32],4.43
same,PRISMA enrichment of interactor (log2),[33],3.92
same,PRISMA enrichment of interactor (log2),[34],7.25
same,PRISMA enrichment of interactor (log2),[35],5.16
same,PRISMA enrichment of interactor (log2),[36],7.24
same,PRISMA enrichment of interactor (log2),[37],5.58
same,PRISMA enrichment of interactor (log2),[38],4.02
same,PRISMA enrichment of interactor (log2),[39],4.29
same,PRISMA enrichment of interactor (log2),[40],7.94
same,PRISMA enrichment of interactor (log2),[41],6.65
same,PRISMA enrichment of interactor (log2),[42],4.26
same,PRISMA enrichment of interactor (log2),[43],5.92
same,PRISMA enrichment of interactor (log2),[44],3.9
same,PRISMA enrichment of interactor (log2),[45],4.52
same,PRISMA enrichment of interactor (log2),[46],6.8
same,PRISMA enrichment of interactor (log2),[47],5.14
same,PRISMA enrichment of interactor (log2),[48],7.09
same,PRISMA enrichment of interactor (log2),[49],5.21
same,PRISMA enrichment of interactor (log2),[50],5.22
same,PRISMA enrichment of interactor (log2),[51],4.92
same,PRISMA enrichment of interactor (log2),[52],4.39
same,PRISMA enrichment of interactor (log2),[53],5.55
same,PRISMA enrichment of interactor (log2),[54],4.44
same,PRISMA enrichment of interactor (log2),[55],7.28
same,PRISMA enrichment of interactor (log2),[56],6.89
same,PRISMA enrichment of interactor (log2),[57],5.74
same,PRISMA enrichment of interactor (log2),[58],6.01
same,PRISMA enrichment of interactor (log2),[59],5.61
same,PRISMA enrichment of interactor (log2),[60],5.01
same,PRISMA enrichment of interactor (log2),[61],4.5
same,PRISMA enrichment of interactor (log2),[62],5.06
same,PRISMA enrichment of interactor (log2),[63],6.25
same,PRISMA enrichment of interactor (log2),[64],4.23
same,PRISMA enrichment of interactor (log2),[65],7.7
same,PRISMA enrichment of interactor (log2),[66],4.9
same,PRISMA enrichment of interactor (log2),[67],5.14
B3,PRISMA enrichment of interactor (log2),[1],5.33
same,PRISMA enrichment of interactor (log2),[68],8.01
same,PRISMA enrichment of interactor (log2),[69],4.56
same,PRISMA enrichment of interactor (log2),[70],4.34
same,PRISMA enrichment of interactor (log2),[71],8.05
same,PRISMA enrichment of interactor (log2),[72],5.55
same,PRISMA enrichment of interactor (log2),[73],6.48
same,PRISMA enrichment of interactor (log2),[74],3.86
same,PRISMA enrichment of interactor (log2),[75],4.57
same,PRISMA enrichment of interactor (log2),[76],4.03
same,PRISMA enrichment of interactor (log2),[77],5.78
same,PRISMA enrichment of interactor (log2),[78],8.31
same,PRISMA enrichment of interactor (log2),[79],6.35
same,PRISMA enrichment of interactor (log2),[80],5.84
same,PRISMA enrichment of interactor (log2),[81],4.83
same,PRISMA enrichment of interactor (log2),[82],7.2
same,PRISMA enrichment of interactor (log2),[83],5.08
same,PRISMA enrichment of interactor (log2),[84],6.31
same,PRISMA enrichment of interactor (log2),[85],5.1
same,PRISMA enrichment of interactor (log2),[86],5.5
same,PRISMA enrichment of interactor (log2),[87],6.05
same,PRISMA enrichment of interactor (log2),[88],5.54
same,PRISMA enrichment of interactor (log2),[67],5.65

# Already shown: an excerpt of the list.
binder,measurement,setting,value
B2,PRISMA enrichment of interactor (log2),[29],4.32
same,PRISMA enrichment of interactor (log2),[30],4.33
same,PRISMA enrichment of interactor (log2),[31],5.58
